Earlier results as cited in patent US9277761B2, “Nutrition trace element composition” (priority 2003, dated 2016).
At least one structure is not confirmed: it was looked up by name or label, or the drawing left a doubt.

Key:
[1] = test system: T-lymphocytes and natural killer cells; conditions: humans, 200 μg of selenium daily as sodium selenite, within three weeks; cited from earlier work
[2] = test system: primary liver cell cancer; conditions: table salt with 15 ppm sodium selenite, 20,847 test persons, five years, versus control of 109,624; cited from earlier work

For `O=[Se](O)O` [sodium selenite], the Natural killer cells [1] is listed as “significant increase” and the “Reduction of incidence of primary liver cell cancer” value [2] is listed as 40%.
